{"source": "the supplement of paper PMC4635364", "key": {"ReNCell VM [1]": {"tested_on": "ReNCell VM", "assay": "neuronal differentiation score (DCX+ cell fraction vs untreated, manual image score) (score (-3 to 3)); higher = more neuronal differentiation", "settings": "2 uM, 2 weeks"}, "ReNCell VM [2]": {"tested_on": "ReNCell VM", "assay": "dopaminergic neuron differentiation score (TH+ cell fraction vs untreated, manual image score) (score (0 to 3)); higher = more TH+ dopaminergic neuron differentiation", "settings": "2 uM, 4 weeks, BDNF 10 ng/ml + GDNF 10 ng/ml"}}, "note": "Where a name gives a salt, the structure may show the parent alone. Some of the results follow. This data set is noisy: repeats of one test often differ as much as different tests do.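 Cells: ReNCell VM human fetal ventral-midbrain neural progenitors, differentiated mitogen-free. Blinded raters compared doublecortin-stained (early neurons) or tyrosine hydroxylase-stained (dopaminergic neurons) images with untreated wells, where 0 means no change. After repeats and both raters were averaged, compounds scoring 2 or above became hits for retesting.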 Where a SMILES comes first, the peptide text is derived from it. [ ]: non-standard residue; d: D form.", "data": [{"smiles": "COC(=O)C[C@H]1C(C)(C)[C@@H](OC(C)=O)[C@@H]2CC3C4CC(=O)O[C@@H](c5ccoc5)[C@]4(C)CCC3[C@@]1(C)C2=O", "note": "(stereo not given in full)", "values": [{"measurement": "neuronal differentiation score", "setting": "ReNCell VM [1]; library: Spectrum", "value": "inactive: 0"}, {"measurement": "dopaminergic neuron differentiation score", "setting": "ReNCell VM [2]; library: Spectrum", "value": "inactive: 0"}]}, {"smiles": "Cc1ccc(C(C)C)cc2c(C)ccc1-2", "values": [{"measurement": "neuronal differentiation score", "setting": "ReNCell VM [1]; library: Spectrum", "value": "inactive: 0"}, {"measurement": "dopaminergic neuron differentiation score", "setting": "ReNCell VM [2]; library: Spectrum", "value": "inactive: 0"}]}, {"smiles": "CCn1cc(C(=O)O)c(=O)c2cnc(N3CCCC3)nc21", "note": "[Piromidic acid]", "values": [{"measurement": "neuronal differentiation score", "setting": "ReNCell VM [1]; library: Prestwick", "value": "inactive: 0"}, {"measurement": "dopaminergic neuron differentiation score", "setting": "ReNCell VM [2]; library: Prestwick", "value": "inactive: 0"}]}, {"smiles": "Cc1cc2c(cc1Cl)N(C(=O)Nc1ccc(Oc3cccnc3C)nc1)CC2", "values": [{"measurement": "neuronal differentiation score", "setting": "ReNCell VM [1]; library: LOPAC", "value": "inactive: 0"}, {"measurement": "dopaminergic neuron differentiation score", "setting": "ReNCell VM [2]; library: LOPAC", "value": "inactive: 0"}]}, {"smiles": "Cc1nccn1CC1CCc2c(c3ccccc3n2C)C1=O", "note": "(stereo not given)", "values": [{"measurement": "neuronal differentiation score", "setting": "ReNCell VM [1]; library: Spectrum", "value": "inactive: 0"}, {"measurement": "dopaminergic neuron differentiation score", "setting": "ReNCell VM [2]; library: Spectrum", "value": "inactive: 0"}]}, {"smiles": "COC(=O)C(N)CS", "note": "(stereo not given)", "values": [{"measurement": "neuronal differentiation score", "setting": "ReNCell VM [1]; library: Spectrum", "value": "inactive: 0"}, {"measurement": "dopaminergic neuron differentiation score", "setting": "ReNCell VM [2]; library: Spectrum", "value": "inactive: 0"}]}, {"smiles": "O=c1c(O)c(Br)ccc2c(Br)c(O)c(O)c(O)c12", "note": "[3,6-dibromo-purpurogallin]", "values": [{"measurement": "neuronal differentiation score", "setting": "ReNCell VM [1]; library: Natural", "value": "inactive: 0"}, {"measurement": "dopaminergic neuron differentiation score", "setting": "ReNCell VM [2]; library: Natural", "value": "inactive: 0"}]}, {"smiles": "CS(=O)(=O)OCCCCOS(C)(=O)=O", "note": "[Busulfan]", "values": [{"measurement": "neuronal differentiation score", "setting": "ReNCell VM [1]; library: Prestwick", "value": "inactive: 0"}, {"measurement": "dopaminergic neuron differentiation score", "setting": "ReNCell VM [2]; library: Prestwick", "value": "inactive: 0"}]}, {"smiles": "CNNCc1ccc(C(=O)NC(C)C)cc1", "values": [{"measurement": "neuronal differentiation score", "setting": "ReNCell VM [1]; library: Spectrum", "value": "inactive: 1"}, {"measurement": "dopaminergic neuron differentiation score", "setting": "ReNCell VM [2]; library: Spectrum", "value": "inactive: 0"}]}, {"smiles": "CCN(CC)CCOc1ccc(Cc2ccccc2)cc1", "note": "[DPPE fumarate]", "values": [{"measurement": "neuronal differentiation score", "setting": "ReNCell VM [1]; library: Tocriscreen", "value": "inactive: 0"}, {"measurement": "dopaminergic neuron differentiation score", "setting": "ReNCell VM [2]; library: Tocriscreen", "value": "inactive: 0"}]}, {"smiles": "CC(=O)OCC(CCn1cnc2cnc(N)nc21)COC(C)=O", "note": "[Famciclovir]", "values": [{"measurement": "neuronal differentiation score", "setting": "ReNCell VM [1]; library: Prestwick", "value": "inactive: 0"}, {"measurement": "dopaminergic neuron differentiation score", "setting": "ReNCell VM [2]; library: Prestwick", "value": "inactive: 0"}]}, {"smiles": "O=C(O)C1CC([C@@H]2CCCCN2)CN2CCCCC12", "note": "(stereo not given in full)", "values": [{"measurement": "neuronal differentiation score", "setting": "ReNCell VM [1]; library: Spectrum", "value": "inactive: 0"}, {"measurement": "dopaminergic neuron differentiation score", "setting": "ReNCell VM [2]; library: Spectrum", "value": "inactive: 0"}]}, {"smiles": "Nc1ccc(S(=O)(=O)NC(=O)c2ccccc2)cc1", "values": [{"measurement": "neuronal differentiation score", "setting": "ReNCell VM [1]; library: Spectrum", "value": "inactive: 0"}, {"measurement": "dopaminergic neuron differentiation score", "setting": "ReNCell VM [2]; library: Spectrum", "value": "inactive: 1"}]}, {"smiles": "CCC(=O)c1c(O)cc(O)cc1O", "values": [{"measurement": "neuronal differentiation score", "setting": "ReNCell VM [1]; library: Spectrum", "value": "inactive: 0"}, {"measurement": "dopaminergic neuron differentiation score", "setting": "ReNCell VM [2]; library: Spectrum", "value": "inactive: 0"}]}, {"smiles": "OC[C@H]1O[C@H](O[C@]2(CCl)O[C@H](CCl)[C@@H](O)[C@@H]2O)[C@H](O)[C@@H](O)[C@H]1Cl", "values": [{"measurement": "neuronal differentiation score", "setting": "ReNCell VM [1]; library: Spectrum", "value": "inactive: 1"}, {"measurement": "dopaminergic neuron differentiation score", "setting": "ReNCell VM [2]; library: Spectrum", "value": "inactive: 0"}]}, {"smiles": "Clc1ccc(C(c2ccc(Cl)cc2)[n+]2ccn(CC(OCc3ccc(Cl)cc3Cl)c3ccc(Cl)cc3Cl)c2)cc1", "note": "(stereo not given) [Calmidazolium chloride]", "values": [{"measurement": "neuronal differentiation score", "setting": "ReNCell VM [1]; library: LOPAC", "value": "inactive: 0"}, {"measurement": "dopaminergic neuron differentiation score", "setting": "ReNCell VM [2]; library: LOPAC", "value": "inactive: 0"}]}, {"smiles": "O=C(O)c1cc(=O)c2cccc(O)c2[nH]1", "note": "[xanthurenic acid]", "values": [{"measurement": "neuronal differentiation score", "setting": "ReNCell VM [1]; library: Natural", "value": "inactive: -1"}, {"measurement": "dopaminergic neuron differentiation score", "setting": "ReNCell VM [2]; library: Natural", "value": "inactive: 0"}]}, {"smiles": "O=C1/C(=C/c2cccs2)CCC/C1=C\\c1cccs1", "values": [{"measurement": "neuronal differentiation score", "setting": "ReNCell VM [1]; library: Spectrum", "value": "inactive: 0"}, {"measurement": "dopaminergic neuron differentiation score", "setting": "ReNCell VM [2]; library: Spectrum", "value": "inactive: 0"}]}, {"smiles": "C[N+]1(C)CCC(OC(=O)C(c2ccccc2)c2ccccc2)CC1", "values": [{"measurement": "neuronal differentiation score", "setting": "ReNCell VM [1]; library: Tocriscreen", "value": "inactive: 0"}, {"measurement": "dopaminergic neuron differentiation score", "setting": "ReNCell VM [2]; library: Tocriscreen", "value": "inactive: 0"}]}, {"smiles": "COC(=O)C[C@H]1C(C)(C)C(=O)[C@@H]2CC3=C(CC[C@]4(C)C3=CC(=O)O[C@H]4c3ccoc3)[C@@]1(C)C2=O", "values": [{"measurement": "neuronal differentiation score", "setting": "ReNCell VM [1]; library: Spectrum", "value": "inactive: 0"}, {"measurement": "dopaminergic neuron differentiation score", "setting": "ReNCell VM [2]; library: Spectrum", "value": "inactive: 0"}]}, {"smiles": "CC1=C2C(O)C(=O)OC3CC4C(C)(C)C(=O)C=C[C@]4(C)C(CC1)[C@]23C", "note": "(stereo not given in full)", "values": [{"measurement": "neuronal differentiation score", "setting": "ReNCell VM [1]; library: Spectrum", "value": "inactive: 0"}, {"measurement": "dopaminergic neuron differentiation score", "setting": "ReNCell VM [2]; library: Spectrum", "value": "inactive: 0"}]}, {"smiles": "COc1nccc(-c2c(-c3ccc(F)cc3)ncn2C2CCC(O)CC2)n1", "note": "(stereo not given)", "values": [{"measurement": "neuronal differentiation score", "setting": "ReNCell VM [1]; library: Tocriscreen", "value": "active: 3"}, {"measurement": "dopaminergic neuron differentiation score", "setting": "ReNCell VM [2]; library: Tocriscreen", "value": "inactive: 0"}]}, {"smiles": "CC(O)(CC(=O)O)CC(=O)O", "values": [{"measurement": "neuronal differentiation score", "setting": "ReNCell VM [1]; library: Spectrum", "value": "inactive: 0"}, {"measurement": "dopaminergic neuron differentiation score", "setting": "ReNCell VM [2]; library: Spectrum", "value": "inactive: 0"}]}, {"smiles": "OCCN1CCN(CC/C=C2/c3ccccc3Sc3ccc(Cl)cc32)CC1", "note": "[Zuclopenthixol hydrochloride]", "values": [{"measurement": "neuronal differentiation score", "setting": "ReNCell VM [1]; library: Prestwick", "value": "inactive: 0"}, {"measurement": "dopaminergic neuron differentiation score", "setting": "ReNCell VM [2]; library: Prestwick", "value": "inactive: 0"}]}, {"smiles": "CC(=O)NCC(=O)N[C@H](CCC(=O)O)C(=O)O", "note": "[N-Acetylglycyl-D-glutamic acid] (Ac-Gly-[dE]-OH)", "values": [{"measurement": "neuronal differentiation score", "setting": "ReNCell VM [1]; library: Tocriscreen", "value": "inactive: 0"}, {"measurement": "dopaminergic neuron differentiation score", "setting": "ReNCell VM [2]; library: Tocriscreen", "value": "inactive: 0"}]}, {"smiles": "CC(C)(C)NC[C@H](O)COc1ccccc1C1CCCC1", "values": [{"measurement": "neuronal differentiation score", "setting": "ReNCell VM [1]; library: Spectrum", "value": "inactive: -1"}, {"measurement": "dopaminergic neuron differentiation score", "setting": "ReNCell VM [2]; library: Spectrum", "value": "inactive: 0"}]}, {"smiles": "c1ccc(-c2ccccn2)nc1", "note": "[2,2'-Bipyridyl]", "values": [{"measurement": "neuronal differentiation score", "setting": "ReNCell VM [1]; library: LOPAC", "value": "inactive: 0"}, {"measurement": "dopaminergic neuron differentiation score", "setting": "ReNCell VM [2]; library: LOPAC", "value": "inactive: 0"}]}, {"smiles": "COc1cccc(O)c1O", "values": [{"measurement": "neuronal differentiation score", "setting": "ReNCell VM [1]; library: Spectrum", "value": "inactive: 0"}, {"measurement": "dopaminergic neuron differentiation score", "setting": "ReNCell VM [2]; library: Spectrum", "value": "inactive: 0"}]}, {"smiles": "COc1ccc(-c2oc3ccccc3c(=O)c2OC)cc1", "values": [{"measurement": "neuronal differentiation score", "setting": "ReNCell VM [1]; library: Spectrum", "value": "inactive: 0"}, {"measurement": "dopaminergic neuron differentiation score", "setting": "ReNCell VM [2]; library: Spectrum", "value": "inactive: 0"}]}, {"smiles": "Cc1nc2c(c(=O)[nH]1)CSCC2", "values": [{"measurement": "neuronal differentiation score", "setting": "ReNCell VM [1]; library: Tocriscreen", "value": "inactive: 0"}, {"measurement": "dopaminergic neuron differentiation score", "setting": "ReNCell VM [2]; library: Tocriscreen", "value": "inactive: 0"}]}, {"smiles": "c1ccc(CN2CCC3(CCCc4ccccc43)CC2)cc1", "note": "[L-687,384 hydrochloride]", "values": [{"measurement": "neuronal differentiation score", "setting": "ReNCell VM [1]; library: LOPAC", "value": "inactive: 0"}, {"measurement": "dopaminergic neuron differentiation score", "setting": "ReNCell VM [2]; library: LOPAC", "value": "inactive: 0"}]}, {"smiles": "COc1ccc(C(=O)Oc2ccc3c(-c4ccc(OC)cc4)cc(=O)oc3c2)cc1", "values": [{"measurement": "neuronal differentiation score", "setting": "ReNCell VM [1]; library: Natural", "value": "inactive: 0"}, {"measurement": "dopaminergic neuron differentiation score", "setting": "ReNCell VM [2]; library: Natural", "value": "inactive: 0"}]}, {"smiles": "C[C@@H]1C[C@H]2[C@@H]3CCC4=CC(=O)C=C[C@]4(C)[C@@]3(Cl)[C@@H](O)C[C@]2(C)[C@@]1(OC(=O)c1ccco1)C(=O)CCl", "values": [{"measurement": "neuronal differentiation score", "setting": "ReNCell VM [1]; library: Spectrum", "value": "inactive: 0"}, {"measurement": "dopaminergic neuron differentiation score", "setting": "ReNCell VM [2]; library: Spectrum", "value": "inactive: 0"}]}, {"smiles": "CCOC(=O)[C@H](CCc1ccccc1)N[C@@H](C)C(=O)N1[C@H](C(=O)O)C[C@H]2CCCC[C@@H]21", "values": [{"measurement": "neuronal differentiation score", "setting": "ReNCell VM [1]; library: Spectrum", "value": "inactive: 1"}, {"measurement": "dopaminergic neuron differentiation score", "setting": "ReNCell VM [2]; library: Spectrum", "value": "inactive: 1"}]}, {"smiles": "CC(C)(CO)[C@@H](O)C(=O)NCCCO", "values": [{"measurement": "neuronal differentiation score", "setting": "ReNCell VM [1]; library: Spectrum", "value": "inactive: 0"}, {"measurement": "dopaminergic neuron differentiation score", "setting": "ReNCell VM [2]; library: Spectrum", "value": "inactive: 0"}]}]}
